The text below walks through data of paper doi:10.1101/2024.12.20.629444.

The chains behind the UniProt entries cited, without tags or fusion partners.
UniProt P46937: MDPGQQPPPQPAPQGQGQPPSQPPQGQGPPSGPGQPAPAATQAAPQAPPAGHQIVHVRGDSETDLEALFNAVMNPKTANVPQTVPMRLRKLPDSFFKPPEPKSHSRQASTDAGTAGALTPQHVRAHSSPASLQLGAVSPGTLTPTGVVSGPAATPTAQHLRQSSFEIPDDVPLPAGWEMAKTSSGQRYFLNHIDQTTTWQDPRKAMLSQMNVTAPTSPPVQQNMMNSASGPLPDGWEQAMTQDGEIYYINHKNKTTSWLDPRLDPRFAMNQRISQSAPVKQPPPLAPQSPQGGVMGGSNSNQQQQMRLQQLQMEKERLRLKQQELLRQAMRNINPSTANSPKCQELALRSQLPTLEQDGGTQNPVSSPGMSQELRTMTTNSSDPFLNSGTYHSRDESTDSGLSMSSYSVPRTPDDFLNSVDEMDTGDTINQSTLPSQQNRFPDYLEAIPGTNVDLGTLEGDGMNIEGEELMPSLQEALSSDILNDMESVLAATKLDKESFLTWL
UniProt P11387: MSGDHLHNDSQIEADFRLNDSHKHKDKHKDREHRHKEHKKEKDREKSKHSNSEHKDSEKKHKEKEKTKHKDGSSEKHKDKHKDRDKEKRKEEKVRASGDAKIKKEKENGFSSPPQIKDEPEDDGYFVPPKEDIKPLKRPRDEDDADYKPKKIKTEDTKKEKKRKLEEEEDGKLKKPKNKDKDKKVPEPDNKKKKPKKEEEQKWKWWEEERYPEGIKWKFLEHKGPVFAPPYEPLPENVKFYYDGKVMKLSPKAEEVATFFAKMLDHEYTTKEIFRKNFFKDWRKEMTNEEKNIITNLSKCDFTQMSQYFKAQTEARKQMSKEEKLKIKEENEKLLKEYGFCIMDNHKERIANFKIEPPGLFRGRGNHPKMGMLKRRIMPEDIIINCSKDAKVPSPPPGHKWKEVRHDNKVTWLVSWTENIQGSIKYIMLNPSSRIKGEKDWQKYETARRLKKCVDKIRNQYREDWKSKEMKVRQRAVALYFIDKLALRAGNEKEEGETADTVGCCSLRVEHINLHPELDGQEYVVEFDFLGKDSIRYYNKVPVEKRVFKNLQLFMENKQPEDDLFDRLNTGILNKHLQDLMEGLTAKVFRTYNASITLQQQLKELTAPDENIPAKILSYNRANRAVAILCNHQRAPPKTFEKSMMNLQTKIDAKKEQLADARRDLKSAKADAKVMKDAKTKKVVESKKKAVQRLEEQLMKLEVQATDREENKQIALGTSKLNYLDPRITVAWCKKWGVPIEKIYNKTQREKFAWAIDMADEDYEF
UniProt P78347: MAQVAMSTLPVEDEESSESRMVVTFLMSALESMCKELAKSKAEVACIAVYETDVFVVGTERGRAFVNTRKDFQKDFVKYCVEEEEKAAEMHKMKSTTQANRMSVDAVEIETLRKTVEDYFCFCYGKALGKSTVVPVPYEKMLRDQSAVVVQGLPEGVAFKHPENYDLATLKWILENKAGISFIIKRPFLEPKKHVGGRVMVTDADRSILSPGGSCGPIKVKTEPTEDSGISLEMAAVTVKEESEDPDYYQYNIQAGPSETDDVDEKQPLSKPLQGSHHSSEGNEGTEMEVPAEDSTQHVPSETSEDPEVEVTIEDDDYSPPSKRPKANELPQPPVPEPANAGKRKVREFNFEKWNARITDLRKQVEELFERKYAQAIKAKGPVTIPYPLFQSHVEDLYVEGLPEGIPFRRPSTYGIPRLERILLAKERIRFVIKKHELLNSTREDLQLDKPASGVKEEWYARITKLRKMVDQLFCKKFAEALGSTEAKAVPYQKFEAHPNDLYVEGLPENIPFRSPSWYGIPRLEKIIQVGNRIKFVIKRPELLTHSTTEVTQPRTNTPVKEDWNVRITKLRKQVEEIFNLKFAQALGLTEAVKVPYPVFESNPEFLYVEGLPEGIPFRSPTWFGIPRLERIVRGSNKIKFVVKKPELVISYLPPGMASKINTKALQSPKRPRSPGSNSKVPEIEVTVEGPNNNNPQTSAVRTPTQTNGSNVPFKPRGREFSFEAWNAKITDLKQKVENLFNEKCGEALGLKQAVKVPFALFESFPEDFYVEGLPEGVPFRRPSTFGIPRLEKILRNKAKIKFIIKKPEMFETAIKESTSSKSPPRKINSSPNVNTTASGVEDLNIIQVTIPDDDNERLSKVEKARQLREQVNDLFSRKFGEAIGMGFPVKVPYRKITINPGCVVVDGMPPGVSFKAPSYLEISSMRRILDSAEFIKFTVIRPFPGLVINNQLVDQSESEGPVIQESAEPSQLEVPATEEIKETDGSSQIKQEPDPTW
UniProt Q14839: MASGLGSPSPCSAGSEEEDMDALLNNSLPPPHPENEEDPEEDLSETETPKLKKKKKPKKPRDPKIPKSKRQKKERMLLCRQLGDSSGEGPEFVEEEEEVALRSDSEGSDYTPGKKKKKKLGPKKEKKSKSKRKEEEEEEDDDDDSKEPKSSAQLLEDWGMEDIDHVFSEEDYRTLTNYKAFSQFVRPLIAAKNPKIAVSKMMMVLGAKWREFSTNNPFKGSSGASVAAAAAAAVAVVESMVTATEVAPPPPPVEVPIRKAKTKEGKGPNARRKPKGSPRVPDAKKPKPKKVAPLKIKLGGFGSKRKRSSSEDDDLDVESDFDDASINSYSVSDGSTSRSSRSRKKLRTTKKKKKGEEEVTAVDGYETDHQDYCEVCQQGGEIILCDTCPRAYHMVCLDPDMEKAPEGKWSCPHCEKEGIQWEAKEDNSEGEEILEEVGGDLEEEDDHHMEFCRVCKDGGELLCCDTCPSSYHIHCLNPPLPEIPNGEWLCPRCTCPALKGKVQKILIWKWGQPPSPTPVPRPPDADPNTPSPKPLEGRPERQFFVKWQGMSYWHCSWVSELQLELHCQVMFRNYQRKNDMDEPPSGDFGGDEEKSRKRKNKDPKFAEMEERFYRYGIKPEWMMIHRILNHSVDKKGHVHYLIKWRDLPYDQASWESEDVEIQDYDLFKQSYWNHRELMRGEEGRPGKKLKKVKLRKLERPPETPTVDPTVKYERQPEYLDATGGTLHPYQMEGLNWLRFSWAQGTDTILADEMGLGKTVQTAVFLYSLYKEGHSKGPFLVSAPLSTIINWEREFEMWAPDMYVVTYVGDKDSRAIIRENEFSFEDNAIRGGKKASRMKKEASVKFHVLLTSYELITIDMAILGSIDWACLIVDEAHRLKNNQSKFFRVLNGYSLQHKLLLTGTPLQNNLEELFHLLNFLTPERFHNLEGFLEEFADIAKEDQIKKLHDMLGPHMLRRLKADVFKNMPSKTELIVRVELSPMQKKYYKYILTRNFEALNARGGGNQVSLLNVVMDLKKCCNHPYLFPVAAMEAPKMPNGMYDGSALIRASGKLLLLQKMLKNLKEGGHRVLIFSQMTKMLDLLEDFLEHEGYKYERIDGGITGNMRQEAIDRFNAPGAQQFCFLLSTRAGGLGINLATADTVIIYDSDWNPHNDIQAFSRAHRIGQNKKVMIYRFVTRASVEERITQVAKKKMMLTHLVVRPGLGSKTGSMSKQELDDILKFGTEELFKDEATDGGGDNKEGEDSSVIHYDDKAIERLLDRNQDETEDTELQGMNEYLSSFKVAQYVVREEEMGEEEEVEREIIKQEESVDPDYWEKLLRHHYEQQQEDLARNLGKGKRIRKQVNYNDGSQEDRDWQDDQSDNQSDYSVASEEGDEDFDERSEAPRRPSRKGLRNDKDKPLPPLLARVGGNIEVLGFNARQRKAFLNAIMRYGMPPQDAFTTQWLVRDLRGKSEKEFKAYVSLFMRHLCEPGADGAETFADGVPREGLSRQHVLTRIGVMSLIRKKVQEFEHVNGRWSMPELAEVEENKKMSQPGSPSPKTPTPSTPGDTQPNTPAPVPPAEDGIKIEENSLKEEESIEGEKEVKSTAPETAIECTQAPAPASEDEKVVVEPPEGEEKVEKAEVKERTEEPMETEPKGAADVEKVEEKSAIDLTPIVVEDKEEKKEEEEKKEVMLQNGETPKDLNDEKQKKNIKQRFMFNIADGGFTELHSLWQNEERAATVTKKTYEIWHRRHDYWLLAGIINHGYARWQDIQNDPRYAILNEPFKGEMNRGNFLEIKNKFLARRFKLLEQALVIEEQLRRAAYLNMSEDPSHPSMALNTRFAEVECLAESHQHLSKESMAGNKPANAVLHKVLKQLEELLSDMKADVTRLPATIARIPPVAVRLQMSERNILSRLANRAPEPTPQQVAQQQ
UniProt P62140: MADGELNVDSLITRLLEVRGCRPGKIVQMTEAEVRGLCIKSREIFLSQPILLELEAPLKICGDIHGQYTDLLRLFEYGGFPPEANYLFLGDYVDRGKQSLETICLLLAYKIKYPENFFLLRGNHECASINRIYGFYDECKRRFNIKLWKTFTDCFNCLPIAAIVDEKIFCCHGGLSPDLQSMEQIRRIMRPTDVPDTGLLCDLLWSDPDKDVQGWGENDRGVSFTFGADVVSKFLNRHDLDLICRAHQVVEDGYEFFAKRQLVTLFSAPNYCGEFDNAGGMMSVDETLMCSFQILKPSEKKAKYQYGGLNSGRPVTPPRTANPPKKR
UniProt Q92922: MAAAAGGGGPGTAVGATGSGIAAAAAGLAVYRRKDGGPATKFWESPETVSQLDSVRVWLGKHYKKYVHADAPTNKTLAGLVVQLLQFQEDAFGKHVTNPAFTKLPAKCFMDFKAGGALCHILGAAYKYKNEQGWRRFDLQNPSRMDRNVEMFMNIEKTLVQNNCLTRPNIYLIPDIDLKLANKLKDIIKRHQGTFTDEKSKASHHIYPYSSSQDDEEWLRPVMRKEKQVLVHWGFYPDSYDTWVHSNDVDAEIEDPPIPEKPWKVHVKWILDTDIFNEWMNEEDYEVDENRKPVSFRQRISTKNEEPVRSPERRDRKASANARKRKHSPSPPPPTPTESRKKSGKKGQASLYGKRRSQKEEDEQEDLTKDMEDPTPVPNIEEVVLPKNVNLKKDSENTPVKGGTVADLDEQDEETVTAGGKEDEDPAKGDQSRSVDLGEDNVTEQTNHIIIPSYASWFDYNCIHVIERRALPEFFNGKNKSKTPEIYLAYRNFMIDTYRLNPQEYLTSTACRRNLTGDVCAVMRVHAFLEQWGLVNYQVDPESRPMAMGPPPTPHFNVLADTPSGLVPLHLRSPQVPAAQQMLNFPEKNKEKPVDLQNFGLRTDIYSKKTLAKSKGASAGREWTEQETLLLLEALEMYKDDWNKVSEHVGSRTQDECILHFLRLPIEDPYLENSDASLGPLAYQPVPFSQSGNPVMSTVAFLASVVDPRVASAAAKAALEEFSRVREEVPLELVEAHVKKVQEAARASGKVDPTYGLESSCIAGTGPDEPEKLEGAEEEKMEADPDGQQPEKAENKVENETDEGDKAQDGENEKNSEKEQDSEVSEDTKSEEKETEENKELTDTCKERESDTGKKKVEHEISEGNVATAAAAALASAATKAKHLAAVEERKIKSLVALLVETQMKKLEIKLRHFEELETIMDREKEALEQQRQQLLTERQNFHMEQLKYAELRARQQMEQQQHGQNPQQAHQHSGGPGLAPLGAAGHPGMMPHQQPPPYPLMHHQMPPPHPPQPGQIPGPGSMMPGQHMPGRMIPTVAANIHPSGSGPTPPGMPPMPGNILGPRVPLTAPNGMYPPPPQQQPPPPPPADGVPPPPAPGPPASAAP
UniProt Q92925: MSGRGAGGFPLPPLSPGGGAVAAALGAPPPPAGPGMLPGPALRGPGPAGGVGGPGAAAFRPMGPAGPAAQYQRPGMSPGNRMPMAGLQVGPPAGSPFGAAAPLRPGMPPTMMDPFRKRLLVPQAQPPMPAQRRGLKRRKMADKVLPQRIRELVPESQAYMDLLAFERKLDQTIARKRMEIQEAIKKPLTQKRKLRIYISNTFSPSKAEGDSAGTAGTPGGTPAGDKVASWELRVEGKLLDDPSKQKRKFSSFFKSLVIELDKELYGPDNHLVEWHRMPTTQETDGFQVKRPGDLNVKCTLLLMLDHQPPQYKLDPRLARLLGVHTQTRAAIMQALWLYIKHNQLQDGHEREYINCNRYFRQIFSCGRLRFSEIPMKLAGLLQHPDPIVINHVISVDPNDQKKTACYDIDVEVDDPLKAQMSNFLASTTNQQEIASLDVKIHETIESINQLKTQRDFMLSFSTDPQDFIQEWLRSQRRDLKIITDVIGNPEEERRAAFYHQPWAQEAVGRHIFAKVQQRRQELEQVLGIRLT
UniProt Q969G3: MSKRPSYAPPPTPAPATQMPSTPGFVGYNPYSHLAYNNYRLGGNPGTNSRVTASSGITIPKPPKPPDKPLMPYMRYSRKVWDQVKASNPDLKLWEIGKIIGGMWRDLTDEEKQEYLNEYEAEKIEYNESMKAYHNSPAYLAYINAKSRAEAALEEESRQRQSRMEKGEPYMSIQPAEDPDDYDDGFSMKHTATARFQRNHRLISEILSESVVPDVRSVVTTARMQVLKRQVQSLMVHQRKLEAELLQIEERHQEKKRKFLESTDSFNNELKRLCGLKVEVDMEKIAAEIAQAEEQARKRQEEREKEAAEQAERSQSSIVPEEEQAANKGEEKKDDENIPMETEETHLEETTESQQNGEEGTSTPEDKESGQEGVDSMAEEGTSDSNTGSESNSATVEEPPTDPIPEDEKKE

No constants are given. Whether binding was seen depends on the method and setting. Binding seen in cells or lysates may run through a third protein. Here binding means that the protein was enriched with, or labelled near, the bait; the list need not be complete.

Sequences and labels used below:
B1: Angiomiotin-like 1 (protein, UniProt Q8IY63 1-956)
chain: MWRAKLRRGTCEPAVKGSPSACYSPSSPVQVLEDSTYFSPDFQLYSGRHETSALTVEATSSIREKVVEDPLCNFHSPNFLRISEVEMRGSEDAAAGTVLQRLIQEQLRYGTPTENMNLLAIQHQATGSAGPAHPTNNFSSTENLTQEDPQMVYQSARQEPQGQEHQVDNTVMEKQVRSTQPQQNNEELPTYEEAKAQSQFFRGQQQQQQQQGAVGHGYYMAGGTSQKSRTEGRPTVNRANSGQAHKDEALKELKQGHVRSLSERIMQLSLERNGAKQHLPGSGNGKGFKVGGGPSPAQPAGKVLDPRGPPPEYPFKTKQMMSPVSKTQEHGLFYGDQHPGMLHEMVKPYPAPQPVRTDVAVLRYQPPPEYGVTSRPCQLPFPSTMQQHSPMSSQTSSASGPLHSVSLPLPLPMALGAPQPPPAASPSQQLGPDAFAIVERAQQMVEILTEENRVLHQELQGYYDNADKLHKFEKELQRISEAYESLVKSTTKRESLDKAMRNKLEGEIRRLHDFNRDLRDRLETANRQLSSREYEGHEDKAAEGHYASQNKEFLKEKEKLEMELAAVRTASEDHRRHIEILDQALSNAQARVIKLEEELREKQAYVEKVEKLQQALTQLQSACEKREQMERRLRTWLERELDALRTQQKHGNGQPANMPEYNAPALLELVREKEERILALEADMTKWEQKYLEESTIRHFAMNAAATAAAERDTTIINHSRNGSYGESSLEAHIWQEEEEVVQANRRCQDMEYTIKNLHAKIIEKDAMIKVLQQRSRKDAGKTDSSSLRPARSVPSIAAATGTHSRQTSLTSSQLAEEKKEEKTWKGSIGLLLGKEHHEHASAPLLPPPPTSALSSIASTTAASSAHAKTGSKDSSTQTDKSAELFWPSMASLPSRGRLSTTPAHSPVLKHPAAKGTAEKLENSPGHGKSPDHRGRVSSLLHKPEFPDGEMMEVLI

The target in one experiment is Yes-associated protein (human (endogenous in SCC13, NHK and HARA)) (UniProt P46937). Briefly: affinity purification with mass spectrometry.
Regarding “TOP1 (from UniProt P11387 1-765) (enzyme)”, the binding result was “binds”.
On to GTF21 (from UniProt P78347 1-998), for which the binding result is reported as “binds”.
Consider “Prolyl 4-Hydroxylase subunit alpha 2 (from UniProt O15460 22-535) (enzyme)”, for which the binding entry is given as “binds”.
“Chromodomain-helicase-DNA-binding protein 4 (from UniProt Q14839 1-1912)”: the binding entry is reported as “binds”.
“PPP1CB, one the catalytic subunits of protein phosphatase 1 (PP1) (from UniProt P62140 1-327) (enzyme)”: the binding result was “binds”.
For the molecule RIF1 (from UniProt Q5UIP0 1-2472), the binding result is recorded as “binds”.
“SWI/SNF-related matrix-associated actin-dependent regulator of chromatin subfamily C member 1 (from UniProt Q92922 1-1105)”: the binding result is given as “binds”.
As to “SWI/SNF-related matrix-associated actin-dependent regulator of chromatin subfamily D member 2 (from UniProt Q92925 1-531)”, the binding entry was “binds”.
As to “SWI/SNF-related matrix-associated actin-dependent regulator of chromatin subfamily E member 1 (from UniProt Q969G3 1-411)”, the binding entry is given as “binds”.
For B1, the binding entry is “binds”.

The target is the same in another experiment. Briefly: affinity purification with mass spectrometry. The source holds these as a separate data set.
Turning to RIF1 (from UniProt Q5UIP0 1-2472), the binding result is “binds”.
